Publication doi:10.1101/156513

Molecular target: GST fused to the C-terminal region of occludin (UniProt Q61146)
Test: pull-down

## GFP-tagged ZPSG region of ZO-1 (ZPSG-1, residues 417-806) (from UniProt Q07157 417-806) (domain or fragment)
  binding: binds

No constants are given. Whether binding was seen depends on the method and setting. In cells and extracts the contact can be indirect. Binding can be weak; no strength is given.
